No constants are given. Whether binding was seen depends on the method and setting. In cells and extracts the contact can be indirect. These calls come from enrichment with a bait or labelling near it, and not all partners need be listed. For part of these data: A no says only that the protein was not detected with the bait.
Legend:
Assay in all cases: affinity purification with mass spectrometry; FL COMMD3, NTD and CTD (tagged with mCherry and 3xFLAG) individually expressed and isolated by co-IP from cell extracts (IP buffer: 25 mM HEPES pH 7.4, 138 mM NaCl, 10 mM Na3PO4, 2.7 mM KCl, 0.5% CHAPS, 1 mM DTT; protein A/G beads); associated proteins identified by mass spectrometry, compared with vector control
[1] = molecular target: full-length (FL) human COMMD3 fused to mCherry and 3xFLAG (human) (UniProt Q9UBI1)
[2] = molecular target: C-terminal domain (CTD) of human COMMD3 with N-terminal mCherry and C-terminal 3xFLAG (human) (UniProt Q9UBI1)
[3] = molecular target: N-terminal domain (NTD) of human COMMD3 fused to mCherry and 3xFLAG, as used in the proteomic experiment (human) (UniProt Q9UBI1)

Amino acid sequences for entries named in this document (tags omitted). A change or cut given only in a name is not applied to a line headed by its entry. Chains listed by the source or under a name are the forms on record and can include a tag or linker. Residues count along the entry.
UniProt Q9UBI1: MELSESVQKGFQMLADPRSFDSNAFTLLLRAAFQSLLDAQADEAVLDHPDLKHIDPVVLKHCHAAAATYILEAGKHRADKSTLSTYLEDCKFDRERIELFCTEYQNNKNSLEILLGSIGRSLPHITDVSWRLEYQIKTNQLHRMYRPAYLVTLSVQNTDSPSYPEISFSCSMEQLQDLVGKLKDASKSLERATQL
N-terminal domain (NTD) of human COMMD3 fused to mCherry and 3xFLAG, as used in the proteomic experiment: residues 1-124 of Q9UBI1
C-terminal domain (CTD) of human COMMD3 with N-terminal mCherry and C-terminal 3xFLAG: residues 125-195 of Q9UBI1
UniProt P84077: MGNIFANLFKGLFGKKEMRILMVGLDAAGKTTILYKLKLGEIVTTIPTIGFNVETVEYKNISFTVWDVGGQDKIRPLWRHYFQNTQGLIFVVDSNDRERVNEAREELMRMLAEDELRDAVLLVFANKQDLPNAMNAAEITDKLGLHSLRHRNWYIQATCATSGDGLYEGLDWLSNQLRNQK

binding [1]: binds
binding [2]: no binding
binding [3]: binds
Substance: ADP-ribosylation factor 1 (ARF1), found by mass spectrometry in COMMD3 immunoprecipitates (from UniProt P84077 1-181)

Reference: PMC12370252
